# Experimental data: the supplement of paper PMC8728848
# Some of the results follow.
# How the values were obtained:
# Test in all cases: glycan array binding signal (z-score within array); higher = stronger binding
# Conditions in all cases: glycan notation: IUPAC condensed, linker removed
# Fuc(a1-2)Gal = target: Fuc(a1-2)Gal
# Summary of the method: (§1)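 Columns mapping to the same glycan were averaged after glycan names were converted to IUPAC-condensed notation. The data come from 3228 arrays in the Consortium for Functional Glycomics database, limited to those with an available protein sequence. Binding is reported as a within-array Z-score averaged across arrays of one protein sequence and across linkers.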
# Fuc(a1-2)Gal(b1-3)GalNAc = target: Fuc(a1-2)Gal(b1-3)GalNAc
# Summary of the method: as §1
# [1] = target: Fuc(a1-2)Gal(b1-3)GalNAc(a1-3)[Fuc(a1-2)]Gal(b1-4)Glc
# Summary of the method: as §1
# [2] = target: Fuc(a1-2)Gal(b1-3)GalNAc(a1-3)[Fuc(a1-2)]Gal(b1-4)GlcNAc
# Summary of the method: as §1
# [3] = target: Fuc(a1-2)Gal(b1-3)GalNAc(b1-3)Gal
# Summary of the method: as §1
# [4] = target: Fuc(a1-2)Gal(b1-3)GalNAc(b1-3)Gal(a1-4)Gal(b1-4)Glc
# Summary of the method: as §1
# [5] = target: Fuc(a1-2)Gal(b1-3)GalNAc(b1-4)[Neu5Ac(a2-3)]Gal(b1-4)Glc
# Summary of the method: as §1
# Fuc(a1-2)Gal(b1-3)GlcNAc = target: Fuc(a1-2)Gal(b1-3)GlcNAc
# Summary of the method: as §1
# [6] = target: Fuc(a1-2)Gal(b1-3)GlcNAc(b1-2)Man(a1-3)[Fuc(a1-2)Gal(b1-3)GlcNAc(b1-2)Man(a1-6)]Man(b1-4)GlcNAc(b1-4)GlcNAc
# Summary of the method: as §1
# [7] = target: Fuc(a1-2)Gal(b1-3)GlcNAc(b1-2)Man(a1-3)[Fuc(a1-2)Gal(b1-3)GlcNAc(b1-2)Man(a1-6)]Man(b1-4)GlcNAc(b1-4)[Fuc(a1-6)]GlcNAc
# Summary of the method: as §1
# [8] = target: Fuc(a1-2)Gal(b1-3)GlcNAc(b1-3)Gal(b1-4)Glc
# Summary of the method: as §1
# [9] = target: Fuc(a1-2)Gal(b1-3)GlcNAc(b1-3)GalNAc
# Summary of the method: as §1
# [10] = target: Fuc(a1-2)Gal(b1-3)GlcNAc(b1-3)[Fuc(a1-2)Gal(b1-3)GlcNAc(b1-6)]GalNAc
# Summary of the method: as §1
# [11] = target: Fuc(a1-2)Gal(b1-3)GlcNAc(b1-3)[Gal(b1-4)GlcNAc(b1-6)]Gal(b1-4)Glc
# Summary of the method: as §1
# [12] = target: Fuc(a1-2)Gal(b1-3)GlcNAc(b1-3)[Neu5Ac(a2-6)Gal(b1-4)GlcNAc(b1-6)]Gal(b1-4)Glc
# Summary of the method: as §1
# [13] = target: Fuc(a1-2)Gal(b1-3)GlcNAc6S
# Summary of the method: as §1
# [14] = target: Fuc(a1-2)Gal(b1-3)[Fuc(a1-4)]GlcNAc
# Summary of the method: as §1
# [15] = target: Fuc(a1-2)Gal(b1-3)[Fuc(a1-4)]GlcNAc(b1-2)Man(a1-3)[Fuc(a1-2)Gal(b1-3)[Fuc(a1-4)]GlcNAc(b1-2)Man(a1-3)]Man(b1-4)GlcNAc(b1-4)GlcNAc
# Summary of the method: as §1
# [16] = target: Fuc(a1-2)Gal(b1-3)[Fuc(a1-4)]GlcNAc(b1-2)Man(a1-3)[Fuc(a1-2)Gal(b1-3)[Fuc(a1-4)]GlcNAc(b1-2)Man(a1-6)]Man(b1-4)GlcNAc(b1-4)[Fuc(a1-6)]GlcNAc(b1-4)[Fuc(a1-6)]GlcNAc
# Summary of the method: as §1
# [17] = target: Fuc(a1-2)Gal(b1-3)[Fuc(a1-4)]GlcNAc(b1-3)[Fuc(a1-3)[Gal(b1-4)]GlcNAc(b1-6)]Gal(b1-4)Glc
# Summary of the method: as §1
# [18] = target: Fuc(a1-2)Gal(b1-3)[Fuc(a1-4)]GlcNAc(b1-3)[Gal(b1-4)GlcNAc(b1-6)]Gal(b1-4)Glc
# Summary of the method: as §1
# Fuc(a1-2)Gal(b1-4)Glc = target: Fuc(a1-2)Gal(b1-4)Glc
# Summary of the method: as §1
# Fuc(a1-2)Gal(b1-4)Glc6S = target: Fuc(a1-2)Gal(b1-4)Glc6S
# Summary of the method: as §1
# Fuc(a1-2)Gal(b1-4)GlcNAc = target: Fuc(a1-2)Gal(b1-4)GlcNAc
# Summary of the method: as §1
# [19] = target: Fuc(a1-2)Gal(b1-4)GlcNAc(b1-2)Man
# Summary of the method: as §1
# [20] = target: Fuc(a1-2)Gal(b1-4)GlcNAc(b1-2)Man(a1-3)[Fuc(a1-2)Gal(b1-4)GlcNAc(b1-2)Man(a1-6)]Man(b1-4)GlcNAc(b1-4)GlcNAc
# Summary of the method: as §1
# [21] = target: Fuc(a1-2)Gal(b1-4)GlcNAc(b1-2)Man(a1-3)[Fuc(a1-2)Gal(b1-4)GlcNAc(b1-2)Man(a1-6)]Man(b1-4)GlcNAc(b1-4)[Fuc(a1-6)]GlcNAc
# Summary of the method: as §1
# [22] = target: Fuc(a1-2)Gal(b1-4)GlcNAc(b1-2)[Fuc(a1-2)Gal(b1-4)GlcNAc(b1-4)]Man(a1-3)[Fuc(a1-2)Gal(b1-4)GlcNAc(b1-2)Man(a1-6)]Man(b1-4)GlcNAc(b1-4)GlcNAc
# Summary of the method: as §1
# [23] = target: Fuc(a1-2)Gal(b1-4)GlcNAc(b1-3)Gal(b1-4)GlcNAc
# Summary of the method: as §1
# [24] = target: Fuc(a1-2)Gal(b1-4)GlcNAc(b1-3)Gal(b1-4)GlcNAc(b1-2)Man(a1-3)[Fuc(a1-2)Gal(b1-4)GlcNAc(b1-3)Gal(b1-4)GlcNAc(b1-2)Man(a1-6)]Man(b1-4)GlcNAc(b1-4)GlcNAc
# Summary of the method: as §1
# [25] = target: Fuc(a1-2)Gal(b1-4)GlcNAc(b1-3)Gal(b1-4)GlcNAc(b1-3)Gal(b1-4)GlcNAc
# Summary of the method: as §1
# [26] = target: Fuc(a1-2)Gal(b1-4)GlcNAc(b1-3)GalNAc
# Summary of the method: as §1
# [27] = target: Fuc(a1-2)Gal(b1-4)GlcNAc(b1-3)[Fuc(a1-2)Gal(b1-4)GlcNAc(b1-6)]GalNAc
# Summary of the method: as §1
# [28] = target: Fuc(a1-2)Gal(b1-4)GlcNAc(b1-3)[Fuc(a1-3)[Gal(b1-4)]GlcNAc(b1-6)]Gal(b1-4)Glc
# Summary of the method: as §1
# [29] = target: Fuc(a1-2)Gal(b1-4)GlcNAc(b1-6)GalNAc
# Summary of the method: as §1
# [30] = target: Fuc(a1-2)Gal(b1-4)GlcNAc6S
# Summary of the method: as §1
# [31] = target: Fuc(a1-2)Gal(b1-4)[Fuc(a1-3)]GlcNAc
# Summary of the method: as §1
binder,measurement,setting,value
PX14404-bvu-534-26-534 (Bacteroides vulgatus) (protein) EDPRGKLTPENFFSTQDELNMSIYALYQKVNLSQVYTNMQLPQWQGDDITTNPGSNKQPAAEMDKFAAANNNKGVKDAWNMHYAIVKAANLIIQGASKTPTTQDEINIALGQAKFWRAYAYFTLVRLWGPLPMNLDNVNDDYTKPLSPVEEVYGHIVQDLTEAEAVLPTGYSGSPRFLNGVNVYVTRQAAKSTLAAVYMAMAGWPMNKTEYYAKAAEKAKEVIEGVNRGEYEYKLDKDYKDVYAMSNNYNNETVLGINYSPFVDWAQDSELTSCNQFESLGGWGDAWGEIRFWKEFPDGPRKDATYDPKIRLKDGTLVDWWELKEDGTPVVPEHHPMFSIFSVNWDPASKVNTSAPYDYTKPASQNMCNDHRHRIIRYSEVLLWYAEAKARTGQTDELAFKCLNDVRERAGLEPLTGLSADDLAEAAYKEHGWEVAGYWVALVTRRADQFRMNRLKDTFKERAENTAVEVADGILVKESVEYTNRTWSDNLMYLPYPDMDSQKNPNLVR,glycan array binding signal (z-score),Fuc(a1-2)Gal,-0.396
same,glycan array binding signal (z-score),Fuc(a1-2)Gal(b1-3)GalNAc,-0.493
same,glycan array binding signal (z-score),[1],-0.188
same,glycan array binding signal (z-score),[2],-0.799
same,glycan array binding signal (z-score),[3],-0.791
same,glycan array binding signal (z-score),[4],0.314
same,glycan array binding signal (z-score),[5],-0.348
same,glycan array binding signal (z-score),Fuc(a1-2)Gal(b1-3)GlcNAc,0.012
same,glycan array binding signal (z-score),[6],0.892
same,glycan array binding signal (z-score),[7],-0.125
same,glycan array binding signal (z-score),[8],-0.445
same,glycan array binding signal (z-score),[9],-0.239
same,glycan array binding signal (z-score),[10],2.03
same,glycan array binding signal (z-score),[11],-1.04
same,glycan array binding signal (z-score),[12],-0.879
same,glycan array binding signal (z-score),[13],0.528
same,glycan array binding signal (z-score),[14],-0.219
same,glycan array binding signal (z-score),[15],0.767
same,glycan array binding signal (z-score),[16],0.278
same,glycan array binding signal (z-score),[17],-0.376
same,glycan array binding signal (z-score),[18],-0.817
same,glycan array binding signal (z-score),Fuc(a1-2)Gal(b1-4)Glc,-0.79
same,glycan array binding signal (z-score),Fuc(a1-2)Gal(b1-4)Glc6S,2.24
same,glycan array binding signal (z-score),Fuc(a1-2)Gal(b1-4)GlcNAc,-0.039
same,glycan array binding signal (z-score),[19],0.442
same,glycan array binding signal (z-score),[20],1.21
same,glycan array binding signal (z-score),[21],0.239
same,glycan array binding signal (z-score),[22],0.13
same,glycan array binding signal (z-score),[23],-1.09
same,glycan array binding signal (z-score),[24],-0.43
same,glycan array binding signal (z-score),[25],-1.38
same,glycan array binding signal (z-score),[26],-0.202
same,glycan array binding signal (z-score),[27],-0.781
same,glycan array binding signal (z-score),[28],-0.195
same,glycan array binding signal (z-score),[29],0.66
same,glycan array binding signal (z-score),[30],0.676
same,glycan array binding signal (z-score),[31],-0.754

# A second format for part of the listing above.
binder	measurement	setting	value
PX14404-bvu-534-26-534 (Bacteroides vulgatus) (protein) EDPRGKLTPENFFSTQDELNMSIYALYQKVNLSQVYTNMQLPQWQGDDITTNPGSNKQPAAEMDKFAAANNNKGVKDAWNMHYAIVKAANLIIQGASKTPTTQDEINIALGQAKFWRAYAYFTLVRLWGPLPMNLDNVNDDYTKPLSPVEEVYGHIVQDLTEAEAVLPTGYSGSPRFLNGVNVYVTRQAAKSTLAAVYMAMAGWPMNKTEYYAKAAEKAKEVIEGVNRGEYEYKLDKDYKDVYAMSNNYNNETVLGINYSPFVDWAQDSELTSCNQFESLGGWGDAWGEIRFWKEFPDGPRKDATYDPKIRLKDGTLVDWWELKEDGTPVVPEHHPMFSIFSVNWDPASKVNTSAPYDYTKPASQNMCNDHRHRIIRYSEVLLWYAEAKARTGQTDELAFKCLNDVRERAGLEPLTGLSADDLAEAAYKEHGWEVAGYWVALVTRRADQFRMNRLKDTFKERAENTAVEVADGILVKESVEYTNRTWSDNLMYLPYPDMDSQKNPNLVR	glycan array binding signal (z-score)	[27]	-0.781
same	glycan array binding signal (z-score)	[28]	-0.195
